The test addresses T1, Carnitine palmitoyl transferase 1 A (CPT1A), HA-tagged (HA-CPT1A) (UniProt P50416).
T1 sequence: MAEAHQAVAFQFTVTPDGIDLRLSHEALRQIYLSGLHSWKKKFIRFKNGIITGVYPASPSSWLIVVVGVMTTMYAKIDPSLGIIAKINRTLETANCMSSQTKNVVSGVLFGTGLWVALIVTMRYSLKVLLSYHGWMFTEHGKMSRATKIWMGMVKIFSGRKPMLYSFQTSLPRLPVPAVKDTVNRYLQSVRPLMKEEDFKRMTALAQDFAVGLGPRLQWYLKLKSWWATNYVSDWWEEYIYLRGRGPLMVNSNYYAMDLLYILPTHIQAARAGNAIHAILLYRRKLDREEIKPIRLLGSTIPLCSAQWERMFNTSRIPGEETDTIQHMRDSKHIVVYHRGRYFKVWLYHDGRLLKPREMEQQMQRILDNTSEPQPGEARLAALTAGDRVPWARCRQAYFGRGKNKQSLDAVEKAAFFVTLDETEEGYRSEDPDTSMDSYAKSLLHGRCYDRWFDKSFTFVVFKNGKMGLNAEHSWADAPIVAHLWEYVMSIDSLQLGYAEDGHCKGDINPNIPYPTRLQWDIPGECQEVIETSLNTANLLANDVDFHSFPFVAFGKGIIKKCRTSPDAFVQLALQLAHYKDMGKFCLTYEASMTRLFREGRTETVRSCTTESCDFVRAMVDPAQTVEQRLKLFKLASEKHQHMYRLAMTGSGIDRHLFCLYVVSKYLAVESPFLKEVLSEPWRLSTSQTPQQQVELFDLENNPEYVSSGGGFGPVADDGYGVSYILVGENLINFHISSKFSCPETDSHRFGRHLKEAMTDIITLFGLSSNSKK
The experiment in a line: co-IP; exogenous IP and Co-IP in 293 T and C33A cells; lysis in NP-40 buffer with phosphatase and protease inhibitors; lysates incubated with HA/Flag beads overnight at 4 °C; washed 4 times with NETN buffer; Western blotting.

Data on 1 molecule can be found in paper PMC11063194.

These are yes or no findings as the source states them, for the method shown. Binding seen in cells or lysates may run through a third protein. Some binding calls cover weakened binding; strength is not graded here. Where a sequence is shown, tags or fusion partners need not be part of it.

B1: Transmembrane 7 superfamily member 2 (TM7SF2), Flag-tagged (Flag-TM7SF2) (enzyme, UniProt O76062 1-418)
chain: MAPTQGPRAPLEFGGPLGAAALLLLLPATMFHLLLAARSGPARLLGPPASLPGLEVLWSPRALLLWLAWLGLQAALYLLPARKVAEGQELKDKSRLRYPINGFQALVLTALLVGLGMSAGLPLGALPEMLLPLAFVATLTAFIFSLFLYMKAQVAPVSALAPGGNSGNPIYDFFLGRELNPRICFFDFKYFCELRPGLIGWVLINLALLMKEAELRGSPSLAMWLVNGFQLLYVGDALWHEEAVLTTMDITHDGFGFMLAFGDMAWVPFTYSLQAQFLLHHPQPLGLPMASVICLINATGYYIFRGANSQKNTFRKNPSDPRVAGLETISTATGRKLLVSGWWGMVRHPNYLGDLIMALAWSLPCGVSHLLPYFYLLYFTALLVHREARDERQCLQKYGLAWQEYCRRVPYRIMPYIY
As for B1, the binding result is recorded as “binds”.
